Experiment: soluble on expression in E. coli; label from the status in PepcDB or PDB records

| Sequence | soluble on expression in E. coli |
| --- | --- |
| LRLEPKLMGMLEKDSPEQRLFLRRDQFPEVLVDALLVTEDRDFYQHDGVSPLAIGRAMVVNLKAGRTVQGGSTLTQQLAKNIFLSSDRTLWRKLREAYMALIIDYRYSKDRILEAYLNEVYLGQSGADAIHGFGLASRLYFGQPLQELRIDQLALLVGMVKGPSYYNPMRYA | not soluble |
| MAGDPMRSDMIKKGDHQAPARSLLHATGALKSPTDMNKPFVAICNSYIDIVPGHVHLRELADIAKEAIREAGAIPFEFNTIGVDDGIAMGHIGMRYSLPSREIIADAAETVINAHWFDGVFYIPNCDKITPGMILAAMRTNVPAIFCSGGPMKAGLSAHGKALTLSSMFEAVGAFKEGSISKEEFLDMEQNACPTCGSCAGMFTANSMNCLMEVLGLALPYNGTALAVSDQRREMIRQAAFKLVENIKNDLKPRDIVTREAIDDAFALDMAMGGSTNTVLHTLAIANEAGIDYDLERINAIAKRTPYLSKIAPSSSYSMHDVHEAGGVPAIINELMKKDGTLHPDRITVTGKTLRENNEGKEIKNFDVIHPLDAPYDAQGGLSILFGNIAPKGAVIKVGGVDPSIKTFTGKAICFNSHDEAVEAIDNRTVRAGHVVVIRYEGPKGGPGMPEMLAPTSSIVGRGLGKDVALITDGRFSGATRGIAVGHISPEAASGGPIALIEDGDEITIDLTNRTLNVNQPEDVLARRRESLTPFKAKVKTGYLARYTALVTSANTGGVMQVPENLILEHHHHHH | soluble |
| MGHHHHHHSHMSPAFRAMDVEPRAKGVLLEPFVHQVGGHSCVLRFNETTLCKPLVPREHQFYETLPAEMRKFTPQYKGVS | not soluble |
| MIMTESREVIDLDPPAETSQEQEDLFIVKVEEEDCTWMQEYNPPTFETFYQRFRHFQYHEASGPREALSQLRVLCCEWLRPELHTKEQILELLVLEQFLTILPEEFQPWVREHHPESGEEAVAVIENIQRELEERRQQIVACPDVLPRKMATPGAVQESCSPHPLTVDTQPEQAPQKPRLLEENALPVLQVPSLPLKDSQELTASLLSTGSQKLVKIEEVADVAVSFILEEWGHLDQSQKSLYRDDRKENYGSITSMGYESRDNMELIVKQISDDSESHWVAPEHTERSVPQDPDFAEVSDLKGMVQRWQVNPTVGKSRQNPSQKRDLDAITDISPKQSTHGERGHRCSDCGKFFLQASNFIQHRRIHTGEKPFKCGECGKSYNQRVHLTQHQRVHTGEKPYKCQVCGKAFRVSSHLVQHHSVHSGERPYGCNECGKNFGRHSHLIEHLKRHFREKSQRCSDKRSKNTKLSVKKKISEYSEADMELSGKTQRNVSQVQDFGEGCEFQGKLDRKQGIPMKEILGQPSSKRMNYSEVPYVHKKSSTGERPHKCNECGKSFIQSAHLIQHQRIHTGEKPFRCEECGKSYNQRVHLTQHQRVHTGEKPYTCPLCGKAFRVRSHLVQHQSVHSGERPFKCNECGKGFGRRSHLAGHLRLHSREKSHQCRECGEIFFQYVSLIEHQVLHMGQKNEKNGICEEAYSWNLTVIEDKKIELQEQPYQCDICGKAFGYSSDLIQHYRTHTAEKPYQCDICRENVGQCSHTKQHQKIYSSTKSHQCHECGRGFTLKSHLNQHQRIHTGEKPFQCKECGMNFSWSCSLFKHLRSHERTDPINTLSVEGSLL | soluble |
| MNLERWTQAAREALAQAQVLAQRMKHQAIDLPHLWAVLLKDERSLAWRLLEKAGADPKALKELQERELARLPKVEGAEVGQYLTSRLSGALNRAEALMEELKDRYVAVDTLVLALAEATPGLPGLEALKGALKELRGGRTVQTEHAESTYNALEQYGIDLTRLAAEGKLDPVIGRDEEIRRVIQILLRRTKNNPVLIGEPGVGKTAIVEGLAQRIVKGDVPEGLKGKRIVSLQMGSLLAGAKYRGEFEERLKAVIQEVVQSQGEVILFIDELHTVVGAGKAEGAVDAGNMLKPALARGELRLIGATTLDEYREIEKDPALERRFQPVYVDEPTVEETISILRGLKEKYEVHHGVRISDSAIIAAATLSHRYITERRLPDKAIDLIDEAAARLRMALESAPEEIDALERKKLQLEIEREALKKEKDPDSQERLKAIEAEIAKLTEEIAKLRAEWEREREILRKLREAQHRLDEVRREIELAERQYDLNRAAELRYGELPKLEAEVEALSEKLRGARFVRLEVTEEDIAEIVSRWTGIPVSKLLEGEREKLLRLEEELHKRVVGQDEAIRAVADAIRRARAGLKDPNRPIGSFLFLGPTGVGKTELAKTLAATLFDTEEAMIRIDMTEYMEKHAVSRLIGAPPGYVGYEEGGQLTEAVRRRPYSVILFDEIEKAHPDVFNILLQILDDGRLTDSHGRTVDFRNTVIILTSNLGSPLILEGLQKGWPYERIRDEVFKVLQQHFRPEFLNRLDEIVVFRPLTKEQIRQIVEIQLSYLRARLAEKRISLELTEAAKDFLAERGYDPVFGARPLRRVIQRELETPLAQKILAGEVKEGDRVQVDVGPAGLVFAVPARVEA | soluble |
| MQKKYITAIIGTTALSALASTHAQAATTHTVKSGESVWSISHKYGISIAKLKSLNGLTSNLIFPNQVLKVSGSSSRATSTNSGTVYTVKAGDSLSSIAAKYGTTYQKIMQLNGLNNYLIFPGQKLKVSGKATSSSRAKASGSSGRTATYTVKYGDSLSAIASKYGTTYQKIMQLNGLTNFFIYPGQKLKVPGGSSSSSSSNNTRSNGGYYSPTFNHQNLYTWGQCTWHVFNRRAEIGKGISTYWWNANNWDNASAADGYTIDYRPTVGSIAQTDAGYYGHVAFVERVNSDGSILVSEMNWSAAPGNMTYRTIPAYQVRNYKFIHLEHHHHHH | not soluble |
| MRKKIIATVIGTSALAAVTWTNADAATTYKVKSGDSLWSIANKYNMSVAKLKSLNNLTSNVIFPNQSLKVSGSTSSSTSSNTSTGSTYTVKSGDTLSGIAAKYGTTYQKIMSLNGLSNFNIYPGQKLKVSGAASSSSSNTSGNTSSGSTTTYTVKSGDSLSAIAAKYGTTYQKIMSLNGLTNFNIYPGQKLKVSGKASTGGSGSSSTGSAGYKTPVFNHSNLYDWGQCTWHVFNKRAQIGKGISTYWWNANNWDTAAAADGYTIDRKATVGSILQSDMGYYGHVAFVESVNANGSITISEMNYSASPGIVTYRTIPASQVSSYVYIHLEHHHHHH | not soluble |
| MTESRISFEDVAVDFSWDQWQLLSPTQKSLYRDVMLENCSSLVFLGNQTTVWLLGFEHLRKSYTG | not soluble |

Source: the DeepSol protein solubility set
